Values quoted from earlier work, collected in patent US12100485B2, “Machine learning and molecular simulation based methods for enhancing binding and activity prediction” (The Board of Trustees of the Leland Stanford Junior …, priority 2018, dated 2024).
At least one compound was matched to its structure with a doubt left.

Test system: μOR

## C[C@@H](NC(=O)[C@@H](N)Cc1ccc(O)cc1)C(=O)N[C@@H](Cc1ccccc1)C(=O)NCC(=O)N[C@@H](Cc1ccc(O)cc1)C(=O)N1CCC[C@H]1C(=O)N[C@@H](CO)C(N)=O [dermorphin]
  Action: agonist
